Data as given in paper PMC8564658.
No constants are given. Whether binding was seen depends on the method and setting. Binding seen in cells or lysates may run through a third protein. Some results given as binding are weak or reduced against the parent protein; the word gives no strength.

By UniProt entry, the sequences of proteins in these tests, tags left out.
UniProt P01108: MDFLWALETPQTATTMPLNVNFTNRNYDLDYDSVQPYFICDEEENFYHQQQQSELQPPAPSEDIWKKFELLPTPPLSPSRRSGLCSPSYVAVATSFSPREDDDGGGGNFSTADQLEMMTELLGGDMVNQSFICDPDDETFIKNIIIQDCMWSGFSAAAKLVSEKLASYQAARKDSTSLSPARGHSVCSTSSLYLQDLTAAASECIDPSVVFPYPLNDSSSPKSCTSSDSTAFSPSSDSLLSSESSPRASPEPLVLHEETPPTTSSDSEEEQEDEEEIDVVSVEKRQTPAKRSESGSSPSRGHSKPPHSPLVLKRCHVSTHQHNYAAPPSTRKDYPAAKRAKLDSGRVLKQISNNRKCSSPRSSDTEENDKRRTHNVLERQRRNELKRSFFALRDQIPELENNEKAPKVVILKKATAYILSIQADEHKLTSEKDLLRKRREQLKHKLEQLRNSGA
UniProt Q61188: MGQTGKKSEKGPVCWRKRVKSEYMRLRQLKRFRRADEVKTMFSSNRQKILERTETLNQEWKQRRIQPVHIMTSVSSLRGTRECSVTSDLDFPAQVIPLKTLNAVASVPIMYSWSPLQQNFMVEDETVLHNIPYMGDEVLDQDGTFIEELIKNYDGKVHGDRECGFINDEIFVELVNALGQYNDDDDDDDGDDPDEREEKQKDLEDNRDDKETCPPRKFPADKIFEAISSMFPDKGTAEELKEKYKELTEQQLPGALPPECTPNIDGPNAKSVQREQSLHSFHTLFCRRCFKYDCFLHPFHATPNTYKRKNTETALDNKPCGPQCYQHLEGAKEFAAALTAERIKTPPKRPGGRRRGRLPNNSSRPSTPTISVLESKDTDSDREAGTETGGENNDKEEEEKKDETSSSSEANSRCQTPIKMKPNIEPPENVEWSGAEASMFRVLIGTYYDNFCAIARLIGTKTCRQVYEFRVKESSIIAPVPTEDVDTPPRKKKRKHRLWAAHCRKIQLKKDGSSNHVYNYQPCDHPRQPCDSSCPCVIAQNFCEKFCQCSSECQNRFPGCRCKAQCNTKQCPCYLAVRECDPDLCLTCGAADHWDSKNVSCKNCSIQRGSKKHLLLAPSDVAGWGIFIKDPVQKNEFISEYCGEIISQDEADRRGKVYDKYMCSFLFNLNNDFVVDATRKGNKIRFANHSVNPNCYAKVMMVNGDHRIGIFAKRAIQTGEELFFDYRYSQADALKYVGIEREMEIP
UniProt P13864: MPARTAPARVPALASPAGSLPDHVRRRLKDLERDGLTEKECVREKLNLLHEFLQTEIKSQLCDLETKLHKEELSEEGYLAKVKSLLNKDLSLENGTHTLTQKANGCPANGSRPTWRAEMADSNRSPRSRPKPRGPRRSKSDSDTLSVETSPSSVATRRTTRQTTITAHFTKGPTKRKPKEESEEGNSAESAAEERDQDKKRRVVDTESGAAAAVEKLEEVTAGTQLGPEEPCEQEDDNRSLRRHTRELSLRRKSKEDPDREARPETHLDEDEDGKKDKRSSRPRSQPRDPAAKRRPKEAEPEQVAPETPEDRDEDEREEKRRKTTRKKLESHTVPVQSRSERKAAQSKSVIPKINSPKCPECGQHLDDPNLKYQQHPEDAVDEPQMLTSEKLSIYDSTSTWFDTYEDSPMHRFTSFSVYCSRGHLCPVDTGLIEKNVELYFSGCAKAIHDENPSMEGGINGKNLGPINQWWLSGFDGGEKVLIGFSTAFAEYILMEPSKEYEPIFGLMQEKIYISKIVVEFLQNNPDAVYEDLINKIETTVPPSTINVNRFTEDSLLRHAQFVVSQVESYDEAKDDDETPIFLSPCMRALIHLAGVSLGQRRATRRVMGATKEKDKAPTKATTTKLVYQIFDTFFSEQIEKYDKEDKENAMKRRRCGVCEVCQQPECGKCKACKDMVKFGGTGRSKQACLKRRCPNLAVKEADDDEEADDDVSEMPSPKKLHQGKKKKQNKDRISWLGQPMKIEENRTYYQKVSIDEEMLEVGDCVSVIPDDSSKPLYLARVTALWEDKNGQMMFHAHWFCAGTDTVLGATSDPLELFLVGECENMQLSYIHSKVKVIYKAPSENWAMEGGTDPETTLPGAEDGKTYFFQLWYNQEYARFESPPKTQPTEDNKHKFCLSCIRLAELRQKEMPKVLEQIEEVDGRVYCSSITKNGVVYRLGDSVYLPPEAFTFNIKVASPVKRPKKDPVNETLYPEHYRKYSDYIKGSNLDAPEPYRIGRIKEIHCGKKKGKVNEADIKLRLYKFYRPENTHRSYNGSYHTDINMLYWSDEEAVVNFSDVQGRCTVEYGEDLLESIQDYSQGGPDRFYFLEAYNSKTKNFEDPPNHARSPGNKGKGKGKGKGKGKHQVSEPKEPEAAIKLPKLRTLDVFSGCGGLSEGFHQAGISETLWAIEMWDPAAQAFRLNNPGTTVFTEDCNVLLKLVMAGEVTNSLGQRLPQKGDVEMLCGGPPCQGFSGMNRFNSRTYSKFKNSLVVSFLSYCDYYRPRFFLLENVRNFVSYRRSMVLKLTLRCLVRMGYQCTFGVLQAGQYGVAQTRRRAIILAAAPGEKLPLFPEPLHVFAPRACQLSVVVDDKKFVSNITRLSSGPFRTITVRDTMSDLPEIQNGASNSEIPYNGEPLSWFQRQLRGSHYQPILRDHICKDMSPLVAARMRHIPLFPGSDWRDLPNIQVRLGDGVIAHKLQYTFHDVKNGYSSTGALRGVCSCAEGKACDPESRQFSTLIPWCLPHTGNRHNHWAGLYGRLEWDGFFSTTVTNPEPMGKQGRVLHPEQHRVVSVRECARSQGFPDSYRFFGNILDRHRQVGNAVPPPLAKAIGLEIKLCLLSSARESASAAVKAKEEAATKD

Tests used:
FLAG-tagged c-Myc = FLAG-tagged c-Myc (UniProt P01108); experiment: co-IP; cells co-transfected with Myc-tagged EZH2, Myc-tagged DNMT1 and different FLAG-tagged c-Myc fragments
[1] = molecular target: c-Myc (mouse (endogenous in MPC-5 podocytes)) (UniProt P01108); experiment: co-IP; lysates (NP-40 lysis buffer, 1% PMSF) of podocytes treated with Hcy; indicated antibody 2 h, Protein-G beads 2 h at 4 °C; western blotting
[2] = molecular target: enhancer of zeste homolog 2 (mouse (endogenous in MPC-5 podocytes)) (UniProt Q61188); experiment: as above

binding (FLAG-tagged c-Myc) | binding [1] | binding [2] | Substance
binds |  |  | Myc-tagged EZH2 (from UniProt Q61188 1-746)
binds |  |  | Myc-tagged DNMT1 (from UniProt P13864 1-1620)
 | binds |  | enhancer of zeste homolog 2 (from UniProt Q61188 1-746)
 | binds | binds | DNA methyltransferase 1 (from UniProt P13864 1-1620)
